Data: patent US12590134B2, “GLP-1 agonist polypeptide compound and salt thereof, synthesis method therefor and use thereof” (Sinopep-Allsino Biopharmaceutical Co., Ltd., priority 2020, dated 2026)
Not every detail of the peptide structures is certain; ends, links or a residue may be inferred.

Columns and labels:
[1] = Effect on random body weight of db/db mice after single subcutaneous injection; assay type: in vivo; parameters: Random body weight at different time after administration, Day −2 / Random body weight at different time after administration, Day −1 / Random body weight at different time after administration, Day 0 / Random body weight at different time after administration, Day 1 / Random body weight at different time after administration, Day 2 / Random body weight at different time after administration, Day 3: unit not given here
Procedure: (§1) After DB/DB mice with high blood glucose were acclimated for 5-7 days, a non-fasting random blood glucose level was determined; after fasting for 12 h, a fasting blood glucose level was determined by a rapid blood glucose meter. […] Mice in each test drug group and each control group received single subcutaneous injection of each test drug or a control solution respectively, and the mice in the model control group received single subcutaneous injection of PBS buffer solution; and the experiment grouping and dosage setting conditions were shown in Table 1:
Body weight: after grouping the animals, the body weight was measured once a day at a fixed time period
(§2) T test was used for comparison between two groups. One-way ANOVA was used for comparison among three or more groups. If there was a significant difference in F value, multiple comparisons should be performed after ANOVA analysis. All data analyses were performed with SPSS 17.0. If p<0.05, it was considered a significant difference.

[2] = test system: db/db mice; assay: Glucose lowering experiment, random blood glucose of db/db mice after single subcutaneous injection; assay type: in vivo
Procedure: as §1
Blood glucose level: the blood was taken from the tail tip of the mice to measure the blood glucose level with a fast blood glucose meter and blood glucose test strips. […]
The glucose lowering effect of the test article was evaluated by BG (mmol/L) or AUC (mmol/L·min).
as §2

CC[C@H](C)[C@H](NC(=O)[C@H](Cc1ccccc1)NC(=O)[C@H](CCC(=O)O)NC(=O)[C@H](CCCCNC(=O)COCCOCCNC(=O)COCCOCCNC(=O)CC[C@H](NC(=O)CCCCCCCCCCCCCCCCC(=O)O)C(=O)O)NC(=O)[C@H](C)NC(=O)[C@H](C)NC(=O)[C@H](CCC(N)=O)NC(=O)[C@](C)(CC)NC(=O)[C@H](CCC(=O)O)NC(=O)[C@H](CC(C)C)NC(=O)[C@H](Cc1ccc(O)cc1)NC(=O)[C@H](CO)NC(=O)[C@H](CO)NC(=O)[C@@H](NC(=O)[C@H](CC(=O)O)NC(=O)[C@H](CO)NC(=O)[C@@H](NC(=O)[C@H](Cc1ccccc1)NC(=O)[C@@H](NC(=O)CNC(=O)[C@H](CCC(=O)O)NC(=O)[C@](C)(CC)NC(=O)[C@@H](N)Cc1c[nH]cn1)[C@@H](C)O)[C@@H](C)O)C(C)C)C(=O)N[C@@H](C)C(=O)N[C@@H](Cc1c[nH]c2ccccc12)C(=O)N[C@@H](CC(C)C)C(=O)N[C@H](C(=O)N[C@@H](CCCNC(=N)N)C(=O)NCC(=O)N[C@@H](CCCNC(=N)N)C(=O)NCC(=O)O)C(C)C [NO: 3]
Random weight variation of the db/db mice, in words ([1]; 24 h, 48 h and 72 h following the single subcutaneous injection, compared with solvent control and Semaglutide group): significantly reduce
Random body weight at different time after administration, Day 0 ([1]; db/db mice, 30 nmol/kg SC single dose, Day 0): 40.55 ± 0.77
Random body weight at different time after administration, Day 1 ([1]; db/db mice, 30 nmol/kg SC single dose, Day 1): 38.09 ± 0.58
Random body weight at different time after administration, Day 2 ([1]; db/db mice, 30 nmol/kg SC single dose, Day 2): 39.41 ± 0.57
Random body weight at different time after administration, Day 3 ([1]; db/db mice, 30 nmol/kg SC single dose, Day 3): 40.06 ± 0.50
Random body weight at different time after administration, Day −1 ([1]; db/db mice, 30 nmol/kg group, Day −1 (before administration)): 39.43 ± 0.83
Random body weight at different time after administration, Day −2 ([1]; db/db mice, 30 nmol/kg group, Day −2 (before administration), X ± s, n = 8): 40.38 ± 0.84
Weight control effect, in words ([1]; single subcutaneous injection 30 nmol/kg): better weight control effect
Glucose lowering effect on random blood glucose, in words ([2]; 30 nmol/kg single subcutaneous injection, compared with Semaglutide at same dosage or solvent control): comparable to that of Semaglutide
Random blood glucose ([2]; db/db mice, 30 nmol/kg SC group, baseline at grouping before administration, X ± s, n = 8): 25.6 ± 2.7 mmol/L
Blood glucose at different time after administration, 0 h ([2]; db/db mice, 30 nmol/kg SC single dose, 0 h): 27.3 ± 2 mmol/L
Blood glucose at different time after administration, 2 h ([2]; db/db mice, 30 nmol/kg SC single dose, 2 h): 15.9 ± 4^ mmol/L
Blood glucose at different time after administration, 4 h ([2]; db/db mice, 30 nmol/kg SC single dose, 4 h): 14.3 ± 3.5 mmol/L
Blood glucose at different time after administration, 6 h ([2]; db/db mice, 30 nmol/kg SC single dose, 6 h): 14.1 ± 5^ mmol/L
Blood glucose at different time after administration, 10 h ([2]; db/db mice, 30 nmol/kg SC single dose, 10 h): 11.8 ± 3.4 mmol/L
Blood glucose at different time after administration, 24 h ([2]; db/db mice, 30 nmol/kg SC single dose, 24 h): 11.1 ± 2.4 mmol/L
Blood glucose at different time after administration, 36 h ([2]; db/db mice, 30 nmol/kg SC single dose, 36 h): 16.7 ± 6.8 mmol/L
Blood glucose at different time after administration, 48 h ([2]; db/db mice, 30 nmol/kg SC single dose, 48 h): 21 ± 4.1 mmol/L
Blood glucose at different time after administration, 56 h ([2]; db/db mice, 30 nmol/kg SC single dose, 56 h): 28.9 ± 3.4 mmol/L
Blood glucose at different time after administration, 72 h ([2]; db/db mice, 30 nmol/kg SC single dose, 72 h): 31.7 ± 1.9 mmol/L
Rate of change of random blood sugar, Ratio(%), 0 h ([2]; solvent control = 100.0, 30 nmol/kg SC, 0 h): 93.0%
Rate of change of random blood sugar, Ratio(%), 2 h ([2]; solvent control = 100.0, 30 nmol/kg SC, 2 h): 55.1%
Rate of change of random blood sugar, Ratio(%), 4 h ([2]; solvent control = 100.0, 30 nmol/kg SC, 4 h): 48.3%
Rate of change of random blood sugar, Ratio(%), 6 h ([2]; solvent control = 100.0, 30 nmol/kg SC, 6 h): 51.4%
Rate of change of random blood sugar, Ratio(%), 10 h ([2]; solvent control = 100.0, 30 nmol/kg SC, 10 h): 35.5%
Rate of change of random blood sugar, Ratio(%), 24 h ([2]; solvent control = 100.0, 30 nmol/kg SC, 24 h): 35.7%
Rate of change of random blood sugar, Ratio(%), 36 h ([2]; solvent control = 100.0, 30 nmol/kg SC, 36 h): 54.5%
Rate of change of random blood sugar, Ratio(%), 48 h ([2]; solvent control = 100.0, 30 nmol/kg SC, 48 h): 71.7%
Rate of change of random blood sugar, Ratio(%), 56 h ([2]; solvent control = 100.0, 30 nmol/kg SC, 56 h): 92.9%
Rate of change of random blood sugar, Ratio(%), 72 h ([2]; solvent control = 100.0, 30 nmol/kg SC, 72 h): 95.1%
Rate of change of random blood sugar, Ratio(%), Random blood glucose ([2]; solvent control = 100.0, baseline before administration, 30 nmol/kg group): 99.6%
